From patent publication US20240307370A1, “SIGMA RECEPTOR LIGANDS FOR TREATING SARS-COV-2 INFECTION” (University of Florida Research Foundation, Incorporated, priority 2021, published 2024)

How the values were obtained:
[1] = rats, mean, cited from earlier work
SARS-CoV-2 [2] = assay: in vitro
SARS-CoV-2 [3] = assay: Plaque reduction assay in Vero E6 monolayers; assay type: cell-based

For CC(CCCn1c(=O)sc2cc(F)ccc21)N1CCN(C2CCCCC2)CC1 (stereo not shown) [AZ66], the AUC ([1]; intravenous 5 mg/kg dose) is listed as 63.2 µg·h/mL, the “area under the curve (AUC)” value ([1]; oral dosing of 20 mg/kg) is listed as 158.22 µg·h/mL and the selectivity ratio at 72 h (SARS-CoV-2 [2]) is listed as greater than 2.82. The “selectivity index (CC50/EC50) by plaque assay” value (SARS-CoV-2 [3]) was greater than 19.72.
